Values from PubChem BioAssay AID504804 (Drosophila RNAi Screening Center, 2011).
Assay: 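Fly genes whose loss lessens doxorubicin-driven cell death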 (primary screen). System: Drosophila Kc cells. Reagent: long dsRNA against Drosophila genes, 0.5 µg dsRNA per well. Timing: 96 h (48 h knock-down, then 48 h drug). Challenge: doxorubicin 5 µg/ml for 48 h, added 48 h after dsRNA. Detection: 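Luminescent ATP counts per replicate, not normalised, reflecting viable cells after 48 h dsRNA knock-down followed by 48 h of 5 µg/ml doxorubicin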. Direction: raw ATP luminescence: higher = more viable cells, protection from doxorubicin. Active means: 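z-score of 2 or more over plate mean in both duplicates, retained only when retests and separate dsRNAs confirm the protection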.
In all, the deposit lists about 19,000 reagents; this is a random part of those with a known target gene and a result. Of all reagents, 47 (0.25%) were called active. 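Signals are raw, not normalised; exact z-scores behind calls not deposited; actives needed confirmation, so some wells reaching 2 SD are inactive.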 The numbers tell different reagents against one gene apart. Names joined by + are all predicted targets of the reagent.

CG12990 showed raw ATP luminescence, replicate 1 = 3.22e5; raw ATP luminescence, replicate 2 = 3.07e5; inactive.
Knock-down of Kdm2 (Lysine demethylase 2) resulted in: raw ATP luminescence, replicate 1 = 65653; raw ATP luminescence, replicate 2 = 43000; inactive.
Vamp7 (Vesicle-associated membrane protein 7) gave raw ATP luminescence, replicate 1 = 39637; raw ATP luminescence, replicate 2 = 68567; inactive.
For CG8172, the values are raw ATP luminescence, replicate 1 = 71960; raw ATP luminescence, replicate 2 = 55093; inactive.
For l(2)09851 (lethal (2) 09851), the entry reads raw ATP luminescence, replicate 1 = 45027; raw ATP luminescence, replicate 2 = 52713; inactive.
With knock-down of CG7299, the screen gave raw ATP luminescence, replicate 1 = 49417; raw ATP luminescence, replicate 2 = 80733; inactive.
After knock-down of spdo (sanpodo) the results were raw ATP luminescence, replicate 1 = 2.77e5; raw ATP luminescence, replicate 2 = 2.48e5; inactive.
Against x16 (x16 splicing factor) #1, the values are raw ATP luminescence, replicate 1 = 2.63e5; raw ATP luminescence, replicate 2 = 3.06e5; inactive.
x16 (x16 splicing factor) #2 scored raw ATP luminescence, replicate 1 = 99027; raw ATP luminescence, replicate 2 = 63330; inactive.
D1 (D1 chromosomal protein) gave raw ATP luminescence, replicate 1 = 70780; raw ATP luminescence, replicate 2 = 26403; inactive.
Against Cpr49Ac (Cuticular protein 49Ac), the values are raw ATP luminescence, replicate 1 = 61597; raw ATP luminescence, replicate 2 = 45003; inactive.
Prip showed raw ATP luminescence, replicate 1 = 62327; raw ATP luminescence, replicate 2 = 73790; inactive.
For CG9444, the entry reads raw ATP luminescence, replicate 1 = 66047; raw ATP luminescence, replicate 2 = 61970; inactive.
Against Gos28 (Golgi SNARE, 28 kDa), the values are raw ATP luminescence, replicate 1 = 58230; raw ATP luminescence, replicate 2 = 84480; inactive.
After knock-down of scat (scattered), the record shows raw ATP luminescence, replicate 1 = 85763; raw ATP luminescence, replicate 2 = 49747; inactive.
For CG13933 the deposit lists raw ATP luminescence, replicate 1 = 61737; raw ATP luminescence, replicate 2 = 48230; inactive.
CG13070 showed raw ATP luminescence, replicate 1 = 50657; raw ATP luminescence, replicate 2 = 40717; inactive.
Against homer, the values are raw ATP luminescence, replicate 1 = 96080; raw ATP luminescence, replicate 2 = 83663; inactive.
Knock-down of CG1638 gave: raw ATP luminescence, replicate 1 = 45740; raw ATP luminescence, replicate 2 = 49510; inactive.
ste24a (prenyl protease type I) showed raw ATP luminescence, replicate 1 = 77717; raw ATP luminescence, replicate 2 = 90930; inactive.
After knock-down of Ugalt (UDP-galactose transporter), the screen gave raw ATP luminescence, replicate 1 = 39420; raw ATP luminescence, replicate 2 = 48000; inactive.
Against CG42507 + Trl #1, the values are raw ATP luminescence, replicate 1 = 65287; raw ATP luminescence, replicate 2 = 72763; inactive.
CG42507 + Trl #2 showed raw ATP luminescence, replicate 1 = 9903; raw ATP luminescence, replicate 2 = 10050; inactive.
CG8927 gave raw ATP luminescence, replicate 1 = 57040; raw ATP luminescence, replicate 2 = 77290; inactive.
With knock-down of CG18004 the results were SD above plate mean at least 3 SD above plate mean; raw ATP luminescence, replicate 1 = 1.21e5; raw ATP luminescence, replicate 2 = 98300; inactive.
Knock-down of CG14647 resulted in: raw ATP luminescence, replicate 1 = 17673; raw ATP luminescence, replicate 2 = 25180; inactive.
fliI (flightless I) gave raw ATP luminescence, replicate 1 = 1.47e5; raw ATP luminescence, replicate 2 = 1.84e5; inactive.
For CG34299 the deposit lists raw ATP luminescence, replicate 1 = 2.12e5; raw ATP luminescence, replicate 2 = 1.82e5; inactive.

Reformatted: entries from further up.
{"target gene":"Cpr49Ac (Cuticular protein 49Ac)","dsRNA no.":1,"raw ATP luminescence, replicate 1":61597,"raw ATP luminescence, replicate 2":45003,"Call":"inactive"}
{"target gene":"Prip","dsRNA no.":1,"raw ATP luminescence, replicate 1":62327,"raw ATP luminescence, replicate 2":73790,"Call":"inactive"}
{"target gene":"CG9444","dsRNA no.":1,"raw ATP luminescence, replicate 1":66047,"raw ATP luminescence, replicate 2":61970,"Call":"inactive"}
{"target gene":"Gos28 (Golgi SNARE, 28 kDa)","dsRNA no.":1,"raw ATP luminescence, replicate 1":58230,"raw ATP luminescence, replicate 2":84480,"Call":"inactive"}
